# Measurements reported in PubChem BioAssay AID2685 (National Center for Advancing Translational Sciences (NCATS), 2010).
# Some of the results follow. These are further read-outs of the screen, such as a control signal, another cell line or another target. No call is given for them. Most of these compounds were active or inconclusive in the main read-out, so they are no random draw. Potencies come from curve fits of mixed quality, noted in brackets.
# Experiment: qHTS Assay for Lipid Storage Modulators in Drosophila S3 Cells;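 for cell number change: cells counted by Cell Tracker Red CMTPX staining in the red channel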
# Conditions: BODIPY lipid droplet fluorescence, 18-24 h; for cell number change: measured here: cell count max response, cells fed with added oleic acid
# Procedure, shortened: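 Drosophila S3 cells got compounds at several concentrations plus oleic acid (400 uM solution). Laser-scanning cytometry with 488 nm excitation read lipid droplets at 500-530 nm and cells at 575-640 nm. Percent activity was relative to 20 uM Triacsin C.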
# [1] = measured here: lipid fluorescence (Fed channel) AC50, cells fed with added oleic acid
# [2] = measured here: cell number channel AC50, cells fed with added oleic acid
SMILES,cell number change [%],AC50 [1],AC50 [2]
COc1ccc(-c2cc(C(=O)Nc3c(C)nn(Cc4ccccc4Cl)c3C)no2)cc1OC,-9.58,"0.259 µM [rising, full curve, poor fit]",
CN1CCN(Cc2cccc(Oc3ccc(Cl)cc3)c2)CC1,-30.6,"0.58 µM [rising, full curve, poor fit]","0.651 µM [falling, full curve]"
COc1ccc(NC(=O)c2cc([N+](=O)[O-])ccc2N2CCCC2)cc1S(N)(=O)=O,17.5,,
CCn1c(SCc2nc3ccccc3c(=O)[nH]2)nc2ccccc21,-44.2,,"29.1 µM [falling, single point]"
c1coc(-c2nc3c([nH]2)CCc2nonc2-3)c1,24.3,"3.66 µM [rising, single point]",
CCOc1ccc(NC(=O)CN(C)C(=O)CCNC(=O)c2ccc(Br)cc2)cc1OCC,25.2,,
Cc1ccc(F)cc1NC(=S)NCCc1ccccc1,-39.2,"32.6 µM [falling, partial curve, poor fit]","0.731 µM [falling, full curve, poor fit]"
Cn1c(SCc2ccccn2)nnc1-c1ccncc1,12.4,,
CCOc1ccccc1NC(=O)CN1C(=O)CSC(C)C1=O (stereo unspecified),,,"1.64 µM [falling, single point]"
CCC(=O)N1CCc2cc(Br)cc(S(=O)(=O)N3CCC(C(=O)NC(C)C)CC3)c21,-28.6,,"0.0231 µM [falling, full curve, poor fit]"
COc1ccc2c(c1)-c1nc(/N=C/c3ccccc3O)sc1CC2,2.44,,
Cc1ccc(NC(=O)CSc2nnc(CSc3nc(C)cc(C)n3)n2Cc2ccco2)c(C)c1,,"9.2 µM [rising, partial curve]","1.64 µM [rising, partial curve]"
CCOc1ccc(CNc2nnnn2C)cc1,19.9,,
N#Cc1ccc2c(c1)C[C@]1(c3ccsc3)OC3=C(C(=O)OC4(CCCCC4)C3)C2O1,5.68,"0.299 µM [rising, partial curve]",
Cc1cc(NC(=O)COC(=O)C(C)Oc2ccc(Cl)cc2Cl)no1 (stereo unspecified),15.8,,
CCOC(=O)c1ccc2c(c1)N(CC(=O)N1CCCC1)C(=O)C(C)(C)O2,-10.7,"0.103 µM [falling, full curve, poor fit]",
CCN(c1ccccc1)c1ncnc2c1cnn2-c1ccccc1,52.9,"29.1 µM [rising, single point]","11.6 µM [rising, partial curve]"
C=CCNC(=O)CSc1nc2ccccc2c(=O)n1CCc1ccc(OC)c(OC)c1,-26,"20.6 µM [falling, single point]",
O=C(NCC1COCCO1)c1cc(COc2ccc(F)cc2F)on1 (stereo unspecified),,"3.26 µM [falling, single point]",

# Not a retest: an excerpt of the list.
SMILES,cell number change [%],AC50 [1],AC50 [2]
c1coc(-c2nc3c([nH]2)CCc2nonc2-3)c1,24.3,"3.66 µM [rising, single point]",
CCOc1ccc(NC(=O)CN(C)C(=O)CCNC(=O)c2ccc(Br)cc2)cc1OCC,25.2,,

# Continued.

SMILES,cell number change [%],AC50 [1],AC50 [2]
O=C1c2ccccc2C(=O)N1CCSc1nc2ccccc2c(=O)n1CCCN1CCOCC1,,"1.84 µM [rising, partial curve, poor fit]",
COc1ccc(-c2cc(C(F)(F)F)n3ncc(C(=O)NCC4CCCO4)c3n2)cc1OC (stereo unspecified),-2.99,"32.6 µM [falling, single point]",
O=C(NCc1ccc2c(c1)OCO2)c1cccc(S(=O)(=O)N2CCOCC2)c1,8.28,"11.6 µM [rising, partial curve]",
C[C@H](NC(=O)c1nc[nH]c1C(=O)N1CCNCC1)C(=O)OC(C)(C)C,-30.5,"0.13 µM [falling, full curve, poor fit]","0.13 µM [falling, full curve, poor fit]"
CC12COC3(C(=O)NCCc4ccccc4)CC1CCC32C (stereo unspecified),-0.326,,
CCOC(=O)c1c(-c2ccccc2)csc1NC(=O)CSc1nc(C)cc(C)n1,13.6,,
CCc1nc2ccc(C(=O)NCCc3ccco3)cc2nc1CC,,"8.2 µM [falling, partial curve]",
Cc1cc2cc3c(cc2nc1SCC(=O)OC(C)C)OCO3,33.7,"18.4 µM [rising, partial curve, poor fit]","0.0116 µM [rising, full curve, poor fit]"
O=C(Cn1cc(C(F)(F)F)ccc1=O)N1CCN(S(=O)(=O)c2ccc(Cl)cc2)CC1,-5.71,,
COC(=O)CCCC1=CC2=CC(=O)C(C)(OC(=O)c3cccs3)C(=O)C2=CN1CCc1ccccn1 (stereo unspecified),28,"0.517 µM [rising, partial curve]",
CCCCN(CCCC)CC1OCc2ccccc2CO1,21.6,"32.6 µM [rising, partial curve]",
CN1c2ccccc2C(C)(C)C12C=Nc1c(cc(N3CCOCC3)c3ccccc13)O2 (stereo unspecified),-20.3,"29.1 µM [falling, single point]",
CS(=O)(=O)c1ccccc1C(=O)NC1CCCc2ccccc21 (stereo unspecified),52.7,,
N=c1c2c(-c3ccccc3)c(-c3ccccc3)oc2ncn1CCCN1CCOCC1,-34.8,"23.1 µM [falling, partial curve, poor fit]","9.2 µM [falling, partial curve, poor fit]"
CCC(=O)OCC(=O)c1cc(C)n(-c2ccc(Br)cc2)c1C,-28.6,"6.51 µM [falling, partial curve, poor fit]",
O=C(Cn1nnc2ccccc21)c1cccc([N+](=O)[O-])c1,2.37,"2.31 µM [rising, single point]",
CC(C)(C)n1nc2c(c1NC(=O)c1ccc(S(=O)(=O)N3CCCC3)cc1)CSC2,-0.662,,
COc1ccc(C(=S)N2CCOCC2)cc1OC(=O)c1ccc([N+](=O)[O-])cc1,32.5,,"9.2 µM [rising, partial curve]"
CCOC(=O)C1CCN(C(=O)C2CC(=O)N(c3ccc4c(c3)OCCO4)C2)CC1 (stereo unspecified),31.4,"0.0058 µM [rising, full curve, poor fit]","16.4 µM [rising, partial curve, poor fit]"

SMILES,cell number change [%],AC50 [1],AC50 [2]
O=C(Cn1cc2c(n1)CCCC2)NCCCN1CCN(Cc2ccccc2)CC1,-4.69,"3.66 µM [rising, full curve, poor fit]","0.00461 µM [falling, full curve, poor fit]"
O=C(Nc1ccc(C(=O)N2CCCC2)cc1)c1ccc2c(c1)OCO2,59.9,"2.91 µM [rising, single point]","0.00461 µM [rising, full curve, poor fit]"
O=S(=O)(NCCNS(=O)(=O)c1cccs1)c1cccs1,-16.6,"29.1 µM [falling, single point]",
COc1ccc(-c2csc(NC(=O)Cc3ccccc3F)n2)cc1OC,18.4,"0.82 µM [rising, full curve]",
COc1ccc([C@H]2CC(=O)C=C(/C=C/c3ccc(C(F)(F)F)cc3)C2)cc1,-31.4,"10.3 µM [falling, partial curve, poor fit]","29.1 µM [falling, single point]"
O=C(O)C1=CC[C@@H](c2ccc(Cl)cc2)N(S(=O)(=O)c2ccc(Cl)cc2)[C@H]1c1cccc(Cl)c1,,"6.51 µM [rising, single point]",
Cc1cccc(NC(=O)CN(C)CC(=O)NC(c2ccccc2)c2ccccc2)c1C,-37.8,"16.4 µM [falling, single point]","1.3 µM [falling, partial curve]"
Cc1cnc(C(=O)NCC(c2ccccc2)c2ccccc2)cn1,-35.4,"5.17 µM [rising, single point]","25.9 µM [falling, single point]"
Cc1cc(C)c(N(CC(=O)NC(C)(C)C)C(=O)CNC(=O)c2cccs2)c(C)c1,-43,"3.26 µM [falling, full curve, poor fit]","20.6 µM [falling, partial curve]"
Fc1ccccc1Cc1ccc(Cl)nn1,45.5,"18.4 µM [rising, partial curve]","8.2 µM [rising, partial curve, poor fit]"
Cc1cccc(NS(=O)(=O)c2ccc(C)c(C(=O)NCC(c3cccs3)N(C)C)c2)c1 (stereo unspecified),198,,"16.4 µM [rising, partial curve]"
Oc1c(Br)cc(Br)cc1CNc1cnc2ccccc2c1,-34.9,,"11.6 µM [falling, partial curve, poor fit]"
COc1ccc2c(c1)c(CC(=O)OC(C)C(=O)N(C)C)c(C)n2C(=O)c1ccc(Cl)cc1 (stereo unspecified),,"3.55 µM [falling, single point]",
O=C(/C=C\c1ccco1)Nc1cc([N+](=O)[O-])ccc1F,4.6,,"0.0731 µM [rising, full curve, poor fit]"
O=C(NCc1ccccn1)c1ccc(Cn2c(=S)[nH]c3ccc(Br)cc3c2=O)cc1,-53.5,"20.6 µM [falling, single point]","20.6 µM [falling, single point]"
Nc1ccn(CC(=O)NCc2ccc3[nH]ccc3c2)c(=O)n1,17,"1.16 µM [rising, partial curve, poor fit]",
Cc1cccc(OCCCSc2nc3ccccc3[nH]2)c1,-19,"1.46 µM [falling, full curve, poor fit]",
CCOC(=O)C1CCN(C(=O)Nc2ccc(OC)c(OC)c2)CC1,82,"0.58 µM [rising, single point]","18.4 µM [rising, single point]"
